Read-outs that look alike come from different tables or passages of the source.
Key:
in vivo = details: rat, po
gastric emptying [1] = assay: animal or person; details: Mus musculus, 1 h, read-out: Percentage inhibition of gastric emptying
gastric emptying [2] = assay: animal or person; details: Rattus norvegicus, 1 h, read-out: Percentage inhibition of gastric emptying
gastric emptying [3] = assay: animal or person; details: Macaca fascicularis, po, 1 h, read-out: Percentage inhibition of gastric emptying

## CCCn1c(=O)c(C)cn2nc(N)nc12 [Emetic of Formula III, 2-amino-6-methyl-5-oxo-4-n-propyl-4,5-dihydro-s-triazolo [1,5-a] pyrimidine]
In vivo
  LD50: 160 mg/kg
Gastric emptying [1]; po
  inhibition at 2.5 mg/kg: 91%
Gastric emptying [1]; sc
  inhibition at 1 mg/kg: 86%
Gastric emptying [2]; po
  inhibition at 0.1 mg/kg: 37%
  inhibition at 1 mg/kg: 68%
Gastric emptying [2]; sc
  inhibition at 0.1 mg/kg: 48%
  inhibition at 1 mg/kg: 75%
Gastric emptying [3]
  inhibition at 0.2 mg/kg: 61%

Source: patent publication US4269820A, “Safeguarded toxic chemical compositions containing effective emesis-inducing S-triazolo-[1,5-α]pyrimidine derivatives” (priority 1977, dated 1981)
